Values from PubChem BioAssay AID743454 (Peter MacCallum Cancer Centre, 2014)
The deposit covers about 18,000 reagents; below is an unselected part. 450 of all reagents (2.5%) were called active. 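Single biological run; no consistent viability z cut-off exists, so the class columns, not z-scores, define the calls.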 Unmarked entries are inactive. Reagent sequences are not shown.

Test: 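Genes whose loss kills vorinostat-resistant colon cancer cells under vorinostat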 (primary screen)
Cell system: human HCT116-VR colon cancer cells, selected for vorinostat resistance
Reagent: siRNA pool against human genes, 40 nM siRNA pool
Duration: vorinostat for 24 h, read-out about 72 h after transfection
Conditions: vorinostat at 2.5 µM final
Read-out: 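Cell viability by CellTiter-Fluor and caspase 3/7 activity by luminescence, each scaled to mock wells per plate, duplicates averaged, then robust z-scored over all plates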
Direction: viability robust z-score: higher = more viable cells than screen typical; caspase robust z-score: higher = more caspase 3/7 activity than screen typical
Active means: 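a knock-down is a hit when classed RV1 or RV2 for lowered viability, or CA1 or CA2 for caspase activation; those lethal without drug were dropped; hits were retested singly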

The first 2 entries, to show the layout:
no.	target gene	viability hit class	caspase hit class	viability robust z-score	caspase robust z-score
1	UBL4B (ubiquitin like 4B)	no change	no change	-0.32	0.94
2	CTLA4 (cytotoxic T-lymphocyte associated protein 4)	no change	no change	-0.66	-0.11

Main list, from the start:
no.	target gene	viability hit class	caspase hit class	viability robust z-score	caspase robust z-score
1	UBL4B (ubiquitin like 4B)	no change	no change	-0.32	0.94
2	CTLA4 (cytotoxic T-lymphocyte associated protein 4)	no change	no change	-0.66	-0.11
3	PLSCR4 (phospholipid scramblase 4)	no change	no change	0.42	0.4
4	EPB41L1 (erythrocyte membrane protein band 4.1 like 1)	no change	no change	0.29	-1.08
5	DMC1 (DNA meiotic recombinase 1)	no change	no change	0.62	-0.09
6	DNAJB4 (DnaJ heat shock protein family (Hsp40) member B4)	no change	no change	-0.74	-0.98
7	DEPP1 (DEPP autophagy regulator 1)	no change	no change	1.06	0.09
8	SLC17A4	no change	no change	-0.87	-0.12
9	TRIM31 (tripartite motif containing 31)	no change	no change	-4.29	7.19
10	GLT8D1 (glycosyltransferase 8 domain containing 1)	no change	no change	0.8	-0.66
11	ARMC1 (armadillo repeat containing 1)	no change	no change	1.77	-0.23
12	P2RY2 (purinergic receptor P2Y2)	no change	no change	0.3	4.9
13	CSNK1A1L (casein kinase 1 alpha 1 like)	no change	no change	0.6	-0.48
14	KALRN (kalirin RhoGEF kinase)	no change	no change	0.23	-0.25
15	BID (BH3 interacting domain death agonist)	no change	no change	0.36	0.59
16	MMP15 (matrix metallopeptidase 15)	no change	no change	-1.23	-0.87
17	CARHSP1 (calcium regulated heat stable protein 1)	no change	no change	-0.34	-0.38
18	PKIG (cAMP-dependent protein kinase inhibitor gamma)	no change	no change	-0.99	1.36
19	APOL1 (apolipoprotein L1)	no change	no change	-0.22	4.34
20	NUBPL (NUBP iron-sulfur cluster assembly factor, mitochondrial)	no change	no change	0.45	-0.49
21	NOP56 (NOP56 ribonucleoprotein)	no change	no change	-2.02	-0.96
22	GPC2 (glypican 2)	no change	no change	-1.81	-0.62
23	PRAMEF12 (PRAME family member 12)	no change	no change	-1.41	0.22
24	CNOT12 (CCR4-NOT transcription complex subunit 12)	no change	no change	-2.35	0.49
25	RGS14 (regulator of G protein signaling 14)	no change	no change	0.1	-1.19
26	RHOT2 (ras homolog family member T2)	no change	no change	0.64	-0.08
27	PIGO (phosphatidylinositol glycan anchor biosynthesis class O)	no change	no change	-1.29	1.55
28	SLC2A2	no change	no change	-0.87	-1.6
29	HSPA5 (heat shock protein family A (Hsp70) member 5)	no change	no change	-2.59	0.14
30	LOC652859 (retired record)	no change	no change	-0.48	0.81
31	UGGT2 (UDP-glucose glycoprotein glucosyltransferase 2)	no change	no change	1.23	-0.18
32	DUSP16 (dual specificity phosphatase 16)	no change	no change	0.39	0.31
33	TMEM184C (transmembrane protein 184C)	no change	no change	0.92	-0.68
34	IRS4 (insulin receptor substrate 4)	no change	no change	0.82	0.12
35	FNDC7 (fibronectin type III domain containing 7)	no change	no change	-0.3	-0.86
36	BORCS8-MEF2B (BORCS8-MEF2B readthrough)	no change	no change	-2.14	4.15
37	TTLL10 (tubulin tyrosine ligase like 10)	no change	no change	0.29	0.46
38	FCGRT (Fc gamma receptor and transporter)	no change	no change	0.82	1.02
39	OR52D1 (olfactory receptor family 52 subfamily D member 1)	no change	no change	0.05	-0.7
40	C1GALT1	no change	no change	1.75	-0.03
41	MSANTD4 (Myb/SANT DNA binding domain containing 4 with coiled-coils)	no change	no change	-0.43	-0.62
42	FFAR3 (free fatty acid receptor 3)	no change	no change	-2.87	3.38
43	FAXC	no change	no change	-1.23	-0.44
44	PPIP5K1 (diphosphoinositol pentakisphosphate kinase 1)	no change	no change	-0.76	0.6
45	SCHIP1 (schwannomin interacting protein 1)	no change	no change	0.24	-0.34
46	SPHK2 (sphingosine kinase 2)	no change	no change	0.04	0.52
47	NONO (non-POU domain containing octamer binding)	no change	no change	-0.62	0.64
48	ODF4 (outer dense fiber of sperm tails 4)	no change	no change	-0.24	-0.64
49	CCDC174 (coiled-coil domain containing 174)	no change	no change	-0.3	0.8
50	TH (tyrosine hydroxylase)	no change	no change	-0.47	-0.2
51	SREK1IP1 (SREK1 interacting protein 1)	no change	no change	1.25	0.38
52	PI3 (peptidase inhibitor 3)	no change	no change	-0.75	2.84
53	ANKRA2 (ankyrin repeat family A member 2)	no change	no change	1.77	-0.55
54	MAGEA10 (MAGE family member A10)	no change	no change	1.83	-0.52
55	COL4A2 (collagen type IV alpha 2 chain)	no change	no change	1.19	-0.52
56	OSER1 (oxidative stress responsive serine rich 1)	no change	no change	0.32	-0.5
57	CCNL2 (cyclin L2)	no change	no change	0.66	-0.64
58	ASIC3 (acid sensing ion channel subunit 3)	no change	no change	0.68	0.84
59	UNC13A (unc-13 homolog A)	no change	no change	-0.51	0.64
60	ASF1A (anti-silencing function 1A histone chaperone)	no change	no change	0.32	-0.6
61	REG3G (regenerating family member 3 gamma)	no change	no change	0.07	0.46
62	FAM151A (family with sequence similarity 151 member A)	no change	no change	0.26	0.52
63	ZNF655 (zinc finger protein 655)	no change	no change	-1.29	4.17
64	HEXD (hexosaminidase D)	no change	no change	-0.46	-0.77
65	PNP (purine nucleoside phosphorylase)	no change	no change	0.07	-1.07
66	GPR146 (G protein-coupled receptor 146)	no change	no change	0.71	1.19
67	CYP4F8 (cytochrome P450 family 4 subfamily F member 8)	no change	no change	0.69	0.36
68	CDCA7L (cell division cycle associated 7 like)	no change	no change	0.47	-0.25
69	IER3IP1 (immediate early response 3 interacting protein 1)	no change	no change	-0.54	0.66
70	MLH1 (mutL homolog 1)	no change	no change	0.91	0.17
71	IBSP (integrin binding sialoprotein)	no change	no change	0.28	1.66
72	ADPRHL1 (ADP-ribosylhydrolase like 1)	no change	no change	1.46	-0.31
73	BCL2L10 (BCL2 like 10)	no change	no change	-0.71	0.28
